Laboratory results: patent US4148788 (dated 1979)

Key:
[1] = Boc solid-phase peptide synthesis; benzhydrylamine resin; dicyclohexylcarbodiimide (DCC); DCC/HOSu, DCC/HOBT and azide coupling in solutio; details: whole synthesis

Substance	step yield (peptide synthesis; coupling step)	step yield (peptide synthesis; late stage modification step)	other results
Ac-S(Bn)D(OBn)AA-OH	65.6%		
Ac-S(Bn)D(OBn)AAVD(OBn)T(Bn)S(Bn)S(Bn)E(OBn)IT(Bn)T(Bn)K(Cbz)-OH	85.37%		
Ac-S(Bn)NAA-OBn	56.9%		
Ac-S(Bn)NAAVD(OBn)T(Bn)S(Bn)S(Bn)E(OBn)IT(Bn)T(Bn)K(Cbz)-OH	42.0%		
Ac-SDAAVDTSSEITTKDLKEKKEVVEEAEN			crude mass [1]: 127 mg; isolated mass [1]: 34 mg; isolated yield ([1]; overall, based on the aspartic acid content of the resin, scale of the general procedure 2.5 g, 0.74 m mol): 6.74%
Ac-Ser(Bzl)-Asn-Ala-Ala-HNNH2		89.6%	
Ac-Ser(Bzl)-Asp(OBzl)-Ala-Ala-HNNH2		61.0%	
Ac-Ser-Asn-Ala-Ala-OH		72.2%	
Ac-Ser-Asp-Ala-Ala-OH		86.3%	
Boc-Asp(OBzl)-Leu-Lys(Z)-Glu(OBzl)-Lys(Z)-Lys(Z)-Glu(OBzl)-Val-Val-Glu(OBzl)-Gl(OBzl)-Ala-Glu(OBzl)-Asn-OBzl	80.2%		
Boc-D(OBn)T(Bn)S(Bn)S(Bn)E(OBn)-OH	82.7%		
Boc-E(OBn)E(OBn)AE(OBn)N-OBn	59.8%		
Boc-E(OBn)K(Cbz)K(Cbz)E(OBn)VVE(OBn)E(OBn)AE(OBn)N-OBn	68.3%		
Boc-E(OBn)VVE(OBn)E(OBn)AE(OBn)N-OBn	58.7%		
Boc-IT(Bn)T(Bn)K(Cbz)-OH	41.2%		
Boc-Ser(Bzl)-Asp(OBzl)-Ala-Ala-HNNH2		23.1%	
Boc-T(Bn)S(Bn)S(Bn)E(OBn)-OH	78.1%		
Boc-VD(OBn)T(Bn)S(Bn)S(Bn)E(OBn)-OH	51.4%		
Boc-VD(OBn)T(Bn)S(Bn)S(Bn)E(OBn)IT(Bn)T(Bn)K(Cbz)-OH	81.7%		
Boc-Val-Asp(OBzl)-Thr(Bzl)-Ser(Bzl)-Ser(Bzl)-Glu(OBzl)-HNNH2		66.4%	
DLKEKKEVVEEAEN		22%	
EKKEVVEEAEN		42.1%	
EVVEEAEN		48.1%	
HCl.H-Glu(OBzl)-Glu(OBzl)-Ala-Glu(OBzl)-Asn-OBzl		75.1%	

Ends that are not written are not given here. * marks the point of attachment. Cbz = O=C(OCc1ccccc1)*; Boc = CC(C)(C)OC(=O)*; OBn = c1ccc(CO*)cc1; Bn = c1ccc(C*)cc1
